Values quoted from earlier work as cited in EP0266640A2 (Euro-Celtique S.A., priority 1986, dated 1988).
At least one structure is not confirmed: it was looked up by name or label, or the drawing left a doubt.

Test system: asthma patients
Conditions: 10 mg Nifedipine and 300-400 mg Theophylline (sustained-release tablet) administered separately; cited from earlier work

COC(=O)C1=C(C)NC(C)=C(C(=O)OC)C1c1ccccc1[N+](=O)[O-] [Nifedipine, 1,4-dihydro-2,6-dimethyl-4-(2-nitrophenyl)-3,5-pyridine carboxylic acid dimethyl ester]
effect of the Nifedipine: no effect
